Source: US20210388068A1
These are yes or no findings as the source states them, for the method shown. Some results given as binding are weak or reduced against the parent protein; the word gives no strength. Where a sequence is shown, tags or fusion partners need not be part of it.

Key:
[1] = target: T1, N-terminal adhesin domain of CfaE fused to maltose-binding protein (MBP-CfaE-N) (enterotoxigenic Escherichia coli (ETEC)) (UniProt P25734); test: ELISA on plate-bound MBP-CfaE-N, anti-human IgG Fc-AP, OD405
T1 sequence (looked up): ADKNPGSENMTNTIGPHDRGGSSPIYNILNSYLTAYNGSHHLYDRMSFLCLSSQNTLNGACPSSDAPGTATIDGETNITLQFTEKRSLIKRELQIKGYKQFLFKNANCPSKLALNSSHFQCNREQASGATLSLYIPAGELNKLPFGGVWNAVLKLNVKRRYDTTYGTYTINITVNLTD

[2] = target: T1, N-terminal adhesin domain of CfaE fused to maltose-binding protein (MBP-CfaE-N) (enterotoxigenic Escherichia coli (ETEC)); test: ELISA on plate-bound wild-type MBP-CfaE-N, OD405
[3] = target: T1, N-terminal adhesin domain of CfaE fused to maltose-binding protein (MBP-CfaE-N) (enterotoxigenic Escherichia coli (ETEC)); test: ELISA, plate-coated MBP-CfaE-N
[4] = target: T1, N-terminal adhesin domain of CfaE fused to maltose-binding protein (MBP-CfaE-N) (enterotoxigenic Escherichia coli (ETEC)); test: SPR, Biacore T200, HuMAb captured on anti-human IgG, MBP-CfaE-N as analyte, 25 C
[5] = target: T1, N-terminal adhesin domain of CfaE fused to maltose-binding protein (MBP-CfaE-N) (enterotoxigenic Escherichia coli (ETEC)); test: SPR, comparison of KD (member of the lower-affinity set)
[6] = target: T1, N-terminal adhesin domain of CfaE fused to maltose-binding protein (MBP-CfaE-N) (enterotoxigenic Escherichia coli (ETEC)); test: SPR, comparison of KD

Measured: binding

B1: anti-CfaE HuMab 68-90 (antibody, human IgG1, V domains shown)
VH: QVQLQQWGAGLLKPSETLSLTCAVYGGSFSAYYWSWIRQPPGKGLEWIGEINHSGNTNYNPSLESRVTISVDTSKNQVSLKQSSVTAADTAVYYCARNWGPNAFDIWGRGTMVTVSS
VL: DIQMTQSPSSVSASVGDRVTITCRASQDITSWLVWYQHKPGKAPKLLIYAASSLQSGVPSRFSGSGSGTDFTLTISSLQPEDFATYYCQQANIFPYTFGQGTKLEIK
binds: [1] | [2] | [3] | [4] | [5]

B2: anti-CfaE HuMab 68-61 (antibody, human IgG1, V domains shown)
VH: QVQLVQSGAEVKNPGSSVRVSCEASGGTFSSFAISWVRQAPGQGLEWMGRIIPILDIVKYAQRFQGRVTISADKSTSTAYMELSSLRSEGTAVYYCARDDIAGSDFDIWGQGTMVTVSS
VL: DIQMTQSPSSLSASVGDRVTITCRASQGISSWLAWYQQKPEKAPKSLIYAASSLQSGVPSRFSGSGSGTDFTLTISSLQPEDFATYYCQQYTSYPYTFGQGTKLEIK
binds: [1] | [2] | [3] | [4] | [5]

B3: anti-CfaE HuMab 68-48 (antibody, human IgG1, V domains shown)
VH: QVQLQQWGAGLLKPSETLSLTCAVYGGSFSGYSWSWIRQSPGKGLEWIGEIYHSGSTNYNPSLKSRVTISGDTSKNQFSLKLSSVTAADTAVYYCARENLQGYYYYGMDVWGQGTTVTVSS
VL: AIQLTQSPSSLSASVGDRVTITCRASQGISSSLAWYQQKPGKAPKLLIYDASSLESGVPSRFSGSGSGTDFTLTISSLQPEDFATYYCQQFNSYPRTFGQGTKVEIK
binds: [1] | [2] | [3] | [6] | [4]
